Measurements as given in publication PMC7549768.
No constants are given. Whether binding was seen depends on the method and setting. Binding seen in cells or lysates may run through a third protein. Binding calls can cover weak binding; strength is not graded here.

Target: T1, TBC1D21 (mouse (endogenous in sperm)) (UniProt Q9D9D3)
T1 sequence: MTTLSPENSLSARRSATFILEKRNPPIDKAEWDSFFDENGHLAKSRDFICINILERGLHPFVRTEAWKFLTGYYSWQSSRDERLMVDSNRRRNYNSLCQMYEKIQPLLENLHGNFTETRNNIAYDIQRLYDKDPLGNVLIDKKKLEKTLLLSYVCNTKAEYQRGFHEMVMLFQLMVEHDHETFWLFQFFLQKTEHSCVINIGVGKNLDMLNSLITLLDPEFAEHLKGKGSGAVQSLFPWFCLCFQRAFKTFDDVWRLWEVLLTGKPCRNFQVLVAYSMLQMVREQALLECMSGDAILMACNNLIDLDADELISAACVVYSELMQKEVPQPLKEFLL
Assay: proximity ligation; Duolink PLA on purified wild-type murine sperm fixed on slides; anti-TBC1D21 with anti-TOMM20 or anti-DNAH7 antibodies, 12 hours at 4°C; probes less than 40 nm apart give a signal; midpiece stained with Mito-tracker

binding: binds
Substance: Dynein Heavy chain 7 (DNAH7) (mouse (endogenous in sperm))
